Measurements as given in PMC5915149, “The role of oxidative stress in activity of anticancer thiosemicarbazones” (Oncotarget, 2018).

How the values were obtained:
HCT116 = experiment: MTS antiproliferative assay, HCT116 (with or without added metal ions); type: cell-based, human; details: versus NHDF
Procedure: (§1) The cells were seeded in 96-well plates (Nunc) at a density of 3,500 cells/well (HCT116 and MCF-7) and 3,000 cells/well (NHDF) and incubated at 37° C for 24 h. The assay was performed following a 96 h incubation with varying concentrations of the compounds that were being tested. Then, 20 µL of CellTiter 96® AQueous One Solution-MTS (Promega) was added to each well (with 100 µL DMEM without phenol red) and incubated for 1 h at 37° C. The optical densities of the samples were analyzed at 490 nm using a multi-plate reader (Synergy 4, Bio Tek). Results were expressed as a percentage of the control and calculated as the inhibitory concentration (IC50) values (using GraphPad Prism 5). The IC50 parameter was defined as the compound concentration that was necessary to reduce the proliferation of cells to 50% of the untreated control. Each individual compound was tested in triplicate in a single experiment with each experiment being repeated three or four times.
(§2) The HCT116 and MCF-7 cells were seeded in 96-well plates (Nunc) at a density of 3,500 cells/well and incubated at 37° C for 24 h. The MTS assay was performed following a 96 h incubation with varying concentrations of the tested compounds. Additionally, a 20 µM solution of CuSO4, FeSO4 or FeCl3 was added into wells with the tested compounds. The results were expressed as a percentage of the control and calculated as the inhibitory concentration (IC50) values using GraphPad Prism 5. Each individual compound was tested in triplicate in a single experiment with each experiment being repeated three times.

MCF-7 = experiment: MTS antiproliferative assay, MCF-7 (with or without added metal ions); type: cell-based, human; details: versus NHDF
Procedure: as §1, §2

| SMILES | Selectivity index, calculated for HCT116 (HCT116) | Selectivity index, calculated for MCF-7 (MCF-7) |
| --- | --- | --- |
| S=C(NN=Cc1ccc2ccccc2n1)N1CCN(c2cnccn2)CC1 [Compound 1a] | 107.6 | 43.1 |
| FC(F)(F)c1cnc(N2CCN(C(=S)NN=Cc3ccc4ccccc4n3)CC2)c(Cl)c1 [Compound 1c] | 236.6 |  |
| Oc1cccc2ccc(C=NNC(=S)N3CCOCC3)nc12 [Compound 2a] |  | 978.8 |
| Oc1cccc2ccc(C=NNC(=S)N3CCN(c4cnccn4)CC3)nc12 [Compound 2b] | 240.4 | 376.7 |
| S=C(NN=C(c1ccccn1)c1ccccn1)N1CCN(c2ccccc2)CC1 [Compound 3a] | 2.1 | 0.1 |
| S=C(NN=C(c1ccccn1)c1ccccn1)N1CCN(c2ccccn2)CC1 [Compound 3b] | 77.7 | 39.0 |
| S=C(NN=C(c1ccccn1)c1ccccn1)N1CCN(c2cnccn2)CC1 [Compound 3c] | 0.4 | 0.5 |
